# PubChem BioAssay AID493014 (National Center for Advancing Translational Sciences (NCATS), 2011)
# This is one part of the list. Shown are side measurements of this screen, not its main read-out; they come without a call. Compounds called inactive in the main read-out are mostly missing here. Words in brackets tell the shape of the fitted curve; partial curves, single points and poor fits give uncertain potencies.
# Test: qHTS Assay to Find Inhibitors of Chronic Active B-Cell Receptor Signaling
# Conditions: ABC-DLBCL IkBa-CBG/CBR reporter, luminescence ratio (green luciferase fused to IkBa over red control in TMD8 lymphoma cells), 4 h
# Method in brief: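 Concentration-response series (up to 46 uM) were applied to TMD8 dual-reporter cells for 4 h at 37C with doxycycline. Green/red ratio, after filter-overlap correction, defined %Activity; red signal alone was normalised to basal cells and zero luminescence.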
# [1] = measured here: CBR red luminescence, cell number
# [2] = measured here: IkBa-CBG green luminescence
Structure (SMILES),AC50 [1],AC50 [2]
O=C(NCCc1ccccc1)c1ccc(-c2ccccc2Cl)o1,"0.82 µM [rising, full curve]",
COc1ccc(C)cc1NC(=O)CNc1ccccc1CN(C)C1CCCCC1,"14.1 µM [falling, partial curve, poor fit]",
Cc1cccc(NC(=O)NC2CCCc3ccccc32)c1 (stereo unspecified),"11.2 µM [falling, partial curve]",
O=C(NCc1csc2ccccc12)Nc1cc(Cl)cc(Cl)c1,"3.98 µM [rising, single point]",
COC(=O)C1=CN(C(C)c2ccccc2)C=C(C(=O)OC)C1c1cc(OC)c(OC)c(OC)c1 (stereo unspecified),"14.1 µM [falling, partial curve]",
CN(CCOc1ccc(Cl)cc1)C(=O)c1cc(-c2ccco2)nc2ccccc12,"14.6 µM [falling, single point]",
CCCCNc1c(-c2cccc(SC3CCCCC3)c2)nc2ccc(Cl)cn12,"23.1 µM [falling, single point]",
Cc1cc(C)n2nc3ccccc3c2n1,"0.562 µM [falling, partial curve, poor fit]",
CC(=O)c1cc(-c2ccccc2)[nH]c1N1CCOCC1,"32.6 µM [falling, single point]",
C/C(=N/NC(=O)c1ccc(Cl)s1)c1ccc(NC(=O)COc2ccc(Cl)cc2)cc1,"16.4 µM [falling, single point]",
c1coc(-c2nnc(-c3ccco3)nn2)c1,"11.2 µM [falling, partial curve]",
CC1=NNC(=O)/C1=C\c1cn(-c2ccccc2)nc1-c1cccs1,"20.6 µM [falling, partial curve]","23.1 µM [rising, single point]"
O=C(NCCOC(=O)c1ccc(Cl)c(S(=O)(=O)N2CCCCC2)c1)c1ccncc1,"0.891 µM [rising, full curve, poor fit]",
Cc1nc2ccc(NC(=O)c3cc(Cl)ccn3)cc2s1,"14.1 µM [falling, single point]",
Cc1ccc(C)c(S(=O)(=O)Nc2ccccc2C(=O)Nc2ccccc2N2CCOCC2)c1,"0.146 µM [falling, full curve, poor fit]",
Cc1ccc(SCC(=O)Nc2cc(S(=O)(=O)N3CCCCC3)ccc2C)cc1,"6.51 µM [rising, single point]",
Cc1ccc2c(=O)cc(C(F)F)oc2c1,"0.103 µM [rising, full curve, poor fit]",
CCOC(=O)Nc1ccc2c(CN3C(=O)NC4(CCCC4)C3=O)cc(=O)oc2c1,"13 µM [falling, partial curve, poor fit]",
CC(C)CNC(=O)c1ccccc1NC(=O)CN(c1ccc2c(c1)OCCO2)S(C)(=O)=O,"3.66 µM [rising, partial curve]",
CC(=O)C1=NN(c2ccccc2)C2(S1)S/C(=C\c1ccccc1)C(=O)N2c1ccccc1 (stereo unspecified),"7.31 µM [falling, partial curve, poor fit]",
O=C(N/N=C/c1c[nH]c2ccccc12)c1cc(Cl)ccc1O,"1.26 µM [falling, full curve]",
COc1cc2[nH]c(C(=O)N(C)Cc3ccccc3)cc2c(OC)c1OC,"17.8 µM [rising, partial curve, poor fit]",

Structure (SMILES),AC50 [1],AC50 [2]
COc1cc(/C=N/NC(=O)c2ccc3c(c2)OCCO3)cc(Br)c1O,"8.91 µM [falling, partial curve]",
Cc1ccc(CNC(=O)C2CC(c3cccc([N+](=O)[O-])c3)=NO2)o1 (stereo unspecified),"2.51 µM [falling, full curve, poor fit]",
CN(C)c1ccc(NC(=O)C2(c3cccs3)CCOCC2)cc1,"17.8 µM [rising, single point]",
COc1ccc(C2C(C#N)=C(N)Oc3c2c(-c2ccccc2)nn3-c2ccccc2)c(OC)c1OC (stereo unspecified),"13 µM [falling, partial curve, poor fit]",
O=C(CN1CCOCC1)Nc1ccccc1,"20.6 µM [rising, single point]",
COc1cccc(-c2c(-c3cc(OC)cc(OC)c3)n(C)c3ccc(Br)cc23)c1,"16.4 µM [rising, single point]",
CC1=C(C(=O)OCC(C)C)C(c2ccccc2Cl)NC(=O)N1C (stereo unspecified),"4.11 µM [rising, single point]",
CC(=O)c1cccc(OCc2cc(C(=O)N3CCSCC3)no2)c1,"35.5 µM [rising, single point]",
Cc1ccc(/C=C2\SC(=S)N(CCC(=O)NNC(=O)c3cccc(O)c3)C2=O)cc1,"10 µM [falling, partial curve]",
COc1cc2c(cc1OC)C(c1ccc(-c3ccccc3Cl)o1)=NCC2,"1.03 µM [rising, single point]",
OCC1(Cc2ccccc2)CCN(Cc2cnc(-c3cccc4ccccc34)nc2)CC1,"2.51 µM [falling, partial curve, poor fit]",
Cc1ccccc1-c1cc(C(=O)n2cccn2)c2cc(Cl)ccc2n1,"11.2 µM [falling, partial curve, poor fit]",
Cc1ccc(N(CC(=O)N2CCOCC2)S(C)(=O)=O)cc1C,"3.26 µM [rising, single point]",
CN1CCN(C(=O)CCCOc2cc(=O)n(C)c3ccccc23)CC1,,"32.6 µM [falling, partial curve, poor fit]"
Cc1sc2c(c1C)C(O)=C(C(=O)Nc1ccccc1)S(=O)(=O)N2C,"1.12 µM [falling, partial curve, poor fit]",
COc1ccc(CN=CC2=C(O)CNC2=O)cc1,"2.91 µM [falling, single point]",
COc1ccc(Nc2nc(C)c(-c3ccccc3)s2)cc1,"29.1 µM [falling, single point]",
CCc1nc(NC(C)(C)C)c2cnn(-c3ccccc3)c2n1,"5.01 µM [rising, full curve, poor fit]",
CCOC(=O)C1=C(C)NC(C)=C(C(=O)OCC)C1C(=O)OCC(=O)N1CCc2ccccc21,"3.16 µM [rising, partial curve]",
COc1ccccc1C1=NN(C(=O)c2ccccc2)C(c2ccc(Br)cc2)C1 (stereo unspecified),"14.1 µM [rising, partial curve, poor fit]",
O=C(CNC(=O)c1ccncc1)N/N=C/c1cc(Br)ccc1OCc1ccccc1,"35.5 µM [falling, single point]",
COc1ccc(NC(=O)CN(C)C(=O)/C=C/c2cn(Cc3ccccc3)nc2-c2cccnc2)cc1,"32.6 µM [falling, single point]",

Structure (SMILES),AC50 [1],AC50 [2]
Cc1ccccc1N=Nc1ccc(O)c2ncccc12,"14.6 µM [rising, partial curve]",
CN(/N=C/c1ccc(O)cc1O)c1ncc(C(F)(F)F)cc1Cl,"10 µM [rising, partial curve]",
O=C(/C=C/Nc1ccccc1F)c1cccs1,"18.4 µM [falling, partial curve]",
Cc1cc(=O)n2[nH]c(NCc3ccccc3F)nc2n1,"31.6 µM [falling, partial curve, poor fit]",
Cc1ccc(C)c2[nH]c(=O)c(CN(CC3CCCO3)C(=O)NC3CCCCC3)cc12 (stereo unspecified),"0.92 µM [rising, full curve, poor fit]",
COc1ccc(OC)c(NC(=O)c2cnc3n(c2=O)CCS3)c1,"0.92 µM [rising, full curve, poor fit]",
Cc1nc(-c2ccccc2)sc1C(=O)Nc1ccccc1F,"1.26 µM [rising, full curve, poor fit]",
COc1ccc(-c2nnc(OCc3nc4ccccc4n3C)c3ccccc23)cc1,"29.1 µM [falling, single point]",
COc1cccc(N=Cc2nc(-c3ccccc3)oc2OC(C)=O)c1,"35.5 µM [falling, single point]",
COc1ccc(NC(=O)Nc2ccc(N(C)C)cc2)cc1,"5.62 µM [rising, partial curve, poor fit]",
O=C(Nc1ccc2nc3n(c(=O)c2c1)CCCC3)c1ccccc1[N+](=O)[O-],,"23.1 µM [rising, partial curve, poor fit]"
CN(C)/C=C/C(=O)c1ccn(S(=O)(=O)c2ccccc2)c1,"10 µM [rising, partial curve, poor fit]",
O=C(CCc1nc2cccnc2n1Cc1ccccc1)NCCc1ccc(Cl)cc1,"15.8 µM [falling, single point]",
COc1cc2nc(SCc3ccc(C(F)(F)F)cc3)n(Cc3cccs3)c(=N)c2cc1OC,"29.1 µM [rising, partial curve, poor fit]",
CC(=O)Nc1ccc(Cl)cc1C(=O)O,"16.4 µM [falling, single point]",
COc1ccc(/C=N/Nc2nc(C(=O)O)cs2)cc1,"15.8 µM [falling, single point]",
COc1ccc(CC(=O)Nc2ccc3nc(C)sc3c2)cc1OC,"0.461 µM [rising, full curve, poor fit]",
O=C(Nc1cccc(F)c1)c1ccc(-c2ccccc2Cl)o1,"16.4 µM [falling, partial curve, poor fit]",
CCOC(=O)C1=CN(Cc2ccco2)S(=O)(=O)N(C)C1c1ccc(C(F)(F)F)cc1 (stereo unspecified),"18.4 µM [falling, partial curve, poor fit]",
CCCCSC(=S)NC1CCS(=O)(=O)C1 (stereo unspecified),"20.6 µM [falling, partial curve]",
O=C1c2ccccc2NC(c2ccccc2Cl)N1N=C1CCCCCC1 (stereo unspecified),"0.0651 µM [falling, full curve, poor fit]",

# Whole records as entered above.
# Cc1cc(=O)n2[nH]c(NCc3ccccc3F)nc2n1 is entered as AC50 [1]: 31.6 µM [falling, partial curve, poor fit]
# COc1ccc(OC)c(NC(=O)c2cnc3n(c2=O)CCS3)c1 is entered as AC50 [1]: 0.92 µM [rising, full curve, poor fit]
# CN(C)/C=C/C(=O)c1ccn(S(=O)(=O)c2ccccc2)c1 is entered as AC50 [1]: 10 µM [rising, partial curve, poor fit]
